Source: PubChem BioAssay AID1259405 (NCATS, 2018)
The deposit covers about 50,000 reagents; below is a random part of them. About 4,000 of all reagents (8%) count as active. 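Mouse siRNA library applied to hamster cells; one well for each siRNA.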 A number with no mark means an inactive call. The numbers tell different reagents against one gene apart.

Screen: 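Knock-downs that lift recombinant protein yield in hamster ovary cells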 (primary screen)
Cell system: Chinese hamster CHO-K1 ovary cells with stable secreted eGFP expression
Reagent: single siRNA against mouse genes, 0.8 pmol siRNA per well (2 µl of 400 nM stock)
Timing: 3 days
Measurement: 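Per-well intracellular GFP measured by laser scanning cytometry, plus viability from ATP luminescence, each relative to plate median of non-targeting control wells, in %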
Scale: GFP, % of control: higher = more GFP per well, higher productivity; viability (ATP), % of control: higher = more viable cells (more ATP)
Call rule: 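Called active when intracellular GFP, relative to negative control, is at or above 120%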

The first 6 records as a preview:
gene symbol	reagent	GFP, % of control	viability (ATP), % of control
Atp6v0c	1	101	107
Atp6v0c	2	144 (active)	112
Atp6v0c	3	76.5	89.8
Atp6v0c	4	101	93.5
Atp6v0c	5	101	107
Atp6v0c	6	116	89.4

The listing, from the first entry:
gene symbol	reagent	GFP, % of control	viability (ATP), % of control
Atp6v0c	1	101	107
Atp6v0c	2	144 (active)	112
Atp6v0c	3	76.5	89.8
Atp6v0c	4	101	93.5
Atp6v0c	5	101	107
Atp6v0c	6	116	89.4
Panx3	1	20.1	31.7
Panx3	2	76.6	89.3
Panx3	3	66.7	60.8
Draxin	1	110	99.1
Draxin	2	86.8	47.8
Draxin	3	65.4	60.1
Fxyd5	1	130 (active)	112
Fxyd5	2	97.5	93.2
Tal2	1	73	71
Tal2	2	60.7	35.6
Tal2	3	59.6	64.7
Rpp14	1	78.5	52.1
Rpp14	2	69.3	57.6
Rpp14	3	39.7	61
Npff	1	101	42
Npff	2	28.1	31.1
Npff	3	79.2	43.3
Trim46	1	114	56.6
Trim46	2	124 (active)	111
Trim46	3	69.1	126
Rtcb	1	68.7	68.2
Rtcb	2	34.1	49.3
Rtcb	3	74.5	78.3
Cpsf4l	1	75.9	99.6
Cpsf4l	2	89.2	32.5
Cpsf4l	3	119	127
Srms	1	58.9	79.5
A930002I21Rik	1	83.4	81.7
A930002I21Rik	2	20.8	32.3
A930002I21Rik	3	71.4	79.7
9530091C08Rik	1	68.9	72.4
9530091C08Rik	2	69	75.1
9530091C08Rik	3	81.3	87.6
Tlx2	1	54.1	58.1
Tlx2	2	61.3	89.4
Pygm	1	110	92.5
Pygm	2	92.1	121
Pygm	3	111	111
Peg12	1	43.9	53.8
Peg12	2	67.7	44.6
Peg12	3	63.4	77.1
Slc35f1	1	88.6	70.3
Slc35f1	2	45.5	31.3
Slc35f1	3	61	62.1
P2rx7	1	79.4	68.9
P2rx7	2	82	69.6
P2rx7	3	51.4	65.3
Esx1	1	66.9	85.1
Esx1	2	57.1	89.5
Esx1	3	85.7	84.2
Gm5115	1	59.2	74.6
Gm5115	2	102	61.9
Gm5115	3	95.6	90.4
Septin7	1	91.9	69.1
Septin7	2	69.7	73.6
Septin7	3	57.5	63.3
Rnls	1	19.3	18.7
Rnls	2	98.1	84
Rnls	3	108	164
Egfl7	1	79.3	84.8
Egfl7	2	82.8	100
Egfl7	3	58.9	39.3
Dynll2	1	26.4	23.8
Dynll2	2	71.3	99.9
Tma7	1	98.1	89.6
Tma7	2	119	77.4
Tma7	3	91.9	39.4
Slc35g1	1	96.7	73.9
Slc35g1	2	97.9	102
Slc35g1	3	139 (active)	123
Fgf5	1	81.4	25
Fgf5	2	67.6	64
Fgf5	3	69.9	67.1
Or14c45	1	33	31.2
Or14c45	2	66.9	55
Or14c45	3	65.6	111
Cyren	1	79.7	76.9
Cyren	2	45.8	70.5
Cyren	3	96.2	96.2
